# This is one part of the list. Values are raw readings; no control value is given beside them.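 In the initial screen, polymyxin B was used at a concentration that permeabilizes Salmonella's outer membrane but not its inner membrane. Maximum growth was set by DMSO wells with or without polymyxin B. Since plates varied, data were ranked per plate, and compounds giving the lowest OD600 advanced as hits.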
# Test system: Salmonella enterica serovar Typhimurium SL1344
# Assay: bacterial growth OD600 after 18 h with compound and polymyxin B; higher = more bacterial growth (less inhibition)
# Conditions: 50 µM, Mueller-Hinton broth
SMILES,bacterial growth OD600 (polymyxin B 1 µg/mL),bacterial growth OD600 (polymyxin B 0.75 µg/mL)
Cc1cccc(CN2CCCC(O)(CNCC(C)(C)C)C2=O)c1 (stereo not given),0.923,–
Cc1ccc2cc(CNCC3CCCCC3)c(N3CCC(O)CC3)nc2c1,–,0.803
OCC#Cc1ccc(CN2CCC3(CCCN(Cc4ccccc4F)C3)C2)s1 (stereo not given),0.02,–
O=C(C1CCOCC1)N1CCc2onc(C(c3ccccc3)c3ccccc3)c2C1,–,0.305
Cc1cc(CN(C)C(=O)c2ccc3nc(Cc4ccccc4F)oc3c2)n[nH]1,0.855,–
CN(CCc1cnn(C)c1)C(=O)c1cc(NC(=O)c2ccccc2)cc2ncn(C3CCCC3)c12,–,0.745
Cc1ccccc1CNC(=O)C1CCCN(C2CCN(C(=O)C3CC3)CC2)C1 (stereo not given),0.885,–
CN(Cc1ccncn1)C(=O)c1csc2nc(-c3ccc(C(F)(F)F)cc3)cn12,1.05,–
CN(Cc1nc(-c2ccc(C(F)(F)F)cc2)no1)CC(O)c1ccccc1 (stereo not given),0.764,–
COc1cccc2ccc(CN3CCc4ccc(NC(=O)c5ccncc5)cc4C3)nc12,–,0.782
C=C(C)CN(CC)C(=O)C1CCC(=O)N(C2CCCC2)C1 (stereo not given),0.958,–
CCn1cc(CNC(C)c2cnc(N(C)C3CCCCC3)nc2C)cn1 (stereo not given),–,0.75
CC(C)Cc1cc(CN2CCCC(CO)(CCc3ccccc3)C2)n[nH]1 (stereo not given),–,0.787
CCO[C@H]1[C@H](NC(=O)c2ccco2)c2ccccc2C12CCN(C(=O)[C@@H]1C[C@@H](C)NC(=S)N1)CC2,–,0.845
Cc1nc(-c2ccncc2)ncc1C(C)NCc1cccc(O)c1 (stereo not given),–,0.784
CSc1nc(C(=O)N2CCc3ccc(NC(=O)c4ccccn4)cc3C2)cs1,–,0.636
CC1CCN(Cc2nnnn2CC(=O)NC2CCCN(Cc3ccccc3)C2)CC1 (stereo not given),0.923,–
C=CCC(=O)NC1CC(=O)N(Cc2ccccc2Cl)C1 (stereo not given),0.924,–
O=C(Cc1cccc(C(F)(F)F)c1)N1CCC2(CC1)CC2C(=O)N1CCN(c2ccccn2)CC1 (stereo not given),–,0.834
COc1ccc(C(=O)N(C)CC2CCCN(CCc3ccccc3OC)C2)cc1F (stereo not given),0.819,–

# Compounds from the list above that contain an aryl methoxy group, in the order listed:
SMILES,bacterial growth OD600 (polymyxin B 1 µg/mL),bacterial growth OD600 (polymyxin B 0.75 µg/mL)
COc1cccc2ccc(CN3CCc4ccc(NC(=O)c5ccncc5)cc4C3)nc12,–,0.782
COc1ccc(C(=O)N(C)CC2CCCN(CCc3ccccc3OC)C2)cc1F (stereo not given),0.819,–
